Experimental data reported in patent US6280768A, “Berberine alkaloids as a treatment for chronic protozoally induced diarrhea” (PRM Pharmaceuticals, Inc., priority 1997, dated 2001).
At least one structure is not confirmed: it was looked up by name or label, or the drawing left a doubt.

Columns and labels:
microsporidia [1] = experiment: Maintenance use of berberines (Example 8); format: in vivo, human; details: continued low or high dose, two to six months
microsporidia [2] = experiment: Human clinical trials versus microsporidia in HIV infected patients with chronic diarrhea (Example 2); format: in vivo

With `COc1ccc2cc3[n+](cc2c1OC)CCc1cc2c(cc1-3)OCO2` [berberine, 5,6-Dihydro-9,10-dimethoxybenzo[g]-1,3-benzodioxolo[5,6-a]quinolizinium] the “recurrence of chronic diarrhea” value (microsporidia [1]) was “No recurrence of chronic diarrhea is reported in either group”, the “clinical symptoms and laboratory parameters” value (microsporidia [2]; low (450 mg daily) and high (900 mg daily) dose, oral tid, 14 days, compared to placebo) was “significantly improved clinical symptoms, and laboratory parameters” and the quality of life (microsporidia [2]; patient report, compared to controls) was “subjective improved quality of life”.
